Laboratory results taken from publication PMC9994480, “Infancy‐onset diabetes caused by de‐regulated AMPylation of the human endoplasmic reticulum chaperone BiP” (EMBO Molecular Medicine, 2023).
These are yes or no findings as the source states them, for the method shown.

Biological target: FICD^L258D-H363A (human) (UniProt Q9BVA6)
Assay: SEC; analytical SEC, Agilent Bio SEC-3 HPLC column, TNT buffer (25 mM Tris pH 8.0, 150 mM NaCl, 1 mM TCEP), 25°C; proteins diluted to a range of concentrations (Fig 3B) and incubated at least 1 h at room temperature; 0.3 ml/min; both purified

binding: no binding
B1: FICD^L258D-H363A (enzyme, UniProt Q9BVA6 104-445)
chain: LEARAALNQALEMKRQGKREKAQKLFMHALKMDPDFVDALTEFGIFSEEDKDIIQADYLYTRALTISPYHEKALVNRDRTLPLVEEIDQRYFSIIDSKVKKVMSIPKGNSALRRVMEETYYHHIYHTVAIEGNTLTLSEIRHILETRYAVPGKSDEEQNEVIGMHAAMKYINTTLVSRIGSVTISDVLEIHRRVLGYVDPVEAGRFRTTQVLVGHHIPPHPQDVEKQMQEFVQWLNSEEAMNLHPVEFAALAHYKLVYIAPFIDGNGRTSRLLMNLILMQAGYPPITIRKEQRSDYYHVLEAANEGDVRPFIRFIAKCTETTLDTLLFATTEYSVALPEAQP
